Measurements published in US20130178488A1, “TRICYCLIC COMPOUNDS, PREPARATION METHODS, AND THEIR USES” (priority 2011, published 2013).
Some entries share one result that the patent states for a list of compounds.

Biological target: T1, recombinant human Lp-PLA2 (Homo sapiens, UniProt Q13093)
T1 sequence (Q13093 22-441): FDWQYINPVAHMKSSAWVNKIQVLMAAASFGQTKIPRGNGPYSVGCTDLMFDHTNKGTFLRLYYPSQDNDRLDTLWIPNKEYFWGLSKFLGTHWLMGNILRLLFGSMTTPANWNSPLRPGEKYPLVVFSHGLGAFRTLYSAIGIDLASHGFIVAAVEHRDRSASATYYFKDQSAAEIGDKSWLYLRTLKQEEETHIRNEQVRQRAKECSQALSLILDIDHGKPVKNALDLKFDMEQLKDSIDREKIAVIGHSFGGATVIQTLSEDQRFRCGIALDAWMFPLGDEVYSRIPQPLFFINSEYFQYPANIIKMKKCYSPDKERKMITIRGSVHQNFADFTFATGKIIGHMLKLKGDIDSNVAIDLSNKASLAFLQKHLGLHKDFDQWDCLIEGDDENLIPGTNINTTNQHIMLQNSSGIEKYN
Assay: Recombinant human Lp-PLA2 assay (rhLp-PLA2, PED6 assay)
Type: biochemical
Conditions: thresholds stated in text, upper limit of the assay is 9.3
Text: (1) Recombinant Human Lp-PLA2 Assay (rhLp-PLA2) (Also Referred to as “PED6” Assay)
N-((6-(2,4-dinitrophenyl)amino)-hexanoyl)-2-(4,4-difluoro-5,7-dimethyl-4-bora-3a,4a-diaza-s-indacene-3-pentanoyl)-1-hexadecanoyl-sn-glycero-3-phosphoethanolamine, triethylammonium salt (PED6) is a commercially available fluorescently-labeled phospholipid, which is commercially available from Molecular Probes. There is a quenching para-nitro phenyl (PNP) group in the sn3 position and a Bodipy fluorescein (FL) group in the sn2 position. Upon cleavage with LpPLA2, the Bodipy Fl group is liberated and then may result in an increase in fluorescence. Inhibitors of LpPLA2 therefore prevent this cleavage and no fluorescent increase is observed.
The PED6 assay is run as an unquenched 10 μL assay. Compounds source plate is prepared by making 1:3 (by volume) serial dilution of the compounds into pure DMSO on 384-well microplate. Then 0.01 μL of compounds on compound source plate are transferred into 384 well Greiner 784076 (black) plates by ECHO liquid dispenser. 5 μL of recombinant human Lp-PLA2 enzyme (2 nM rhLp-PLA2 in assay buffer of 50 mM HEPES, pH7.4, 150 mM NaCl, 1 mM CHAPS) is added to each well of the plate with compounds. Plates are centrifuged for 10 sec at 500 rpm. After 30 minutes preincubation, 5 μL of substrate (4 μM PED6 [from 5 mM DMSO stock] in assay buffer of 50 mM HEPES, pH7.4, 150 mM NaCl, 1 mM CHAPS) is added to 384 well Greiner 784076 (black) plates. Plates are centrifuged for 10 sec at 500 rpm. Plate is covered to protect from light and incubated for 20 min at room temperature. Plates are read for Fluorescence intensity at ex: 480/em: 540 using ViewLux microplate imager. PIC50 data, curve and QC analysis is conducted by using XL fit module in Excel.

SMILES	pIC50 values in the PED6 assay	other results
COc1ccc2c(c1)CCn1c-2cc(OCCc2ccc(Oc3cncc(C(F)(F)F)c3)c(C#N)c2)nc1=O [Example E47, 5-(2-((9-methoxy-4-oxo-6,7-dihydro-4H-pyrimido[6,1-a]isoquinolin-2-yl)oxy)ethyl)-2-((5-(trifluoromethyl)pyridin-3-yl)oxy)benzonitrile]	–	pIC50 values in the PED6 assay (listed as 47): at least 9.0; pIC50 values in the PED6 assay (listed as example 47): at least 8.0
Cc1ccc2c(c1)CCn1c-2cc(OCc2ccc(Oc3cnc(C(F)(F)F)nc3)c(C#N)c2)nc1=O [Example 115, 5-(((9-methyl-4-oxo-6,7-dihydro-4H-pyrimido[6,1-a]isoquinolin-2-yl)oxy)methyl)-2-((2-(trifluoromethyl)pyrimidin-5-yl)oxy)benzonitrile]	at least 8.0	–
N#Cc1cc(COc2cc3n(c(=O)n2)CCc2ccccc2-3)ccc1Oc1cccc(C(F)(F)F)n1 [Example 96, 5-(((4-oxo-6,7-dihydro-4H-pyrimido[6,1-a]isoquinolin-2-yl)oxy)methyl)-2-((6-(trifluoro-methyl)pyridin-2-yl)oxy)benzonitrile]	at least 9.0	–
O=c1nc(OCc2cc(F)c(Oc3ccc(C(F)(F)F)nc3)c(F)c2)cc2n1CCc1ccccc1-2 [Example 94, 2-((3,5-difluoro-4-((6-(trifluoromethyl)pyridin-3-yl)oxy)benzyl)oxy)-6,7-dihydro-4H-pyrimido[6,1-a]isoquinolin-4-one]	at least 9.0	–
Cc1ccc2c(c1)CCn1c-2cc(OCc2ccc(Oc3ccc(C(F)(F)F)nc3)c(C#N)c2)nc1=O [Example 117, 5-(((9-methyl-4-oxo-6,7-dihydro-4H-pyrimido[6,1-a]isoquinolin-2-yl)oxy)methyl)-2-((6-(trifluoromethyl)pyridin-3-yl)oxy)benzonitrile]	at least 9.0	pIC50 values in the PED6 assay (listed as example 117): at least 8.0
N#Cc1cc(COc2cc3n(c(=O)n2)CCc2ccccc2-3)ccc1Oc1cccc(C(F)(F)F)c1 [Example 97, 5-(((4-oxo-6,7-dihydro-4H-pyrimido[6,1-a]isoquinolin-2-yl)oxy)methyl)-2-(3-(trifluoro-methyl)phenoxy)benzonitrile]	at least 9.0	–
COc1ccc2c(c1)CCn1c-2cc(OCc2ccc(Oc3cccc(C(F)(F)F)n3)c(F)c2)nc1=O [Example E59, 2-((3-fluoro-4-((6-(trifluoromethyl)pyridin-2-yl)oxy)benzyl)oxy)-9-methoxy-6,7-dihydro-4H-pyrimido[6,1-a]isoquinolin-4-one]	at least 8.0	–
COc1ccc2c(c1)CCn1c-2cc(OCc2ccc(Oc3ccc(C)nc3)c(Cl)c2)nc1=O [Example 75, 2-((3-chloro-4-((6-methylpyridin-3-yl)oxy)benzyl)oxy)-9-methoxy-6,7-dihydro-4H-pyri-mido[6,1-a]isoquinolin-4-one]	at least 8.0	–
COc1ccc2c(c1)CCn1c-2cc(SCc2ccc(Oc3cccc(C(F)(F)F)c3)c(C#N)c2)nc1=O [Example E11, 5-({[9-(Methyloxy)-4-oxo-6,7-dihydro-4H-pyrimido[6,1-a]isoquinolin-2-yl]thio}methyl)-2-{[3-(trifluoromethyl)phenyl]oxy}benzonitrile]	at least 8.0	–
COc1ccc2c(c1)CCn1c-2cc(OCc2ccc(Oc3cccc(C(F)(F)F)c3)cc2)nc1=O [Example E37, 9-methoxy-2-((4-(3-(trifluoromethyl)phenoxy)benzyl)oxy)-6,7-dihydro-4H-pyrimido[6,1-a]isoquinolin-4-one]	at least 8.0	–
O=c1nc(OCc2ccc(Oc3cnc(C(F)(F)F)nc3)c(F)c2)cc2n1CCc1ccccc1-2 [Example 104, 2-((3-fluoro-4-((2-(trifluoromethyl)pyrimidin-5-yl)oxy)benzyl)oxy)-6,7-dihydro-4H-pyrimido[6,1-a]isoquinolin-4-one]	at least 9.0	–
